The list shows a part of the results.
Experiments:
Assay in all cases: log2 fold change, soluble protein after heating vs DMSO (PISA); higher = thermal stabilisation; K562 lysate, 10 uM; active = over 0.2 and 3.5 SD of the protein, either way, in both replicates (recomputed)
[1] = compound: NCC(=O)Nc1ccc(-n2nc(C(F)(F)F)cc2-c2ccc3c(ccc4ccccc43)c2)cc1
Summary of the method: (§1)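 Soluble protein was defined as the supernatant remaining after 21,000xg for 90 min, following pooling of heated aliquots and adjustment to 0.5% NP-40 at 4°C. Before that, crude K562 extract at 1 mg/mL protein in PBS pH 7.4 with 1 mM MgCl2 was treated with 10 μM compound for 30 min and heated for 3 min across 48°C-58°C. Quantification used TMTpro 16plex LC-MS/MS with channel sums equalised, and values are log-two fold changes in thermal stability relative to solvent controls from duplicates.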

Amino acid sequences for entries named in this document (tags omitted). A change or cut given only in a name is not applied to a line headed by its entry.
UniProt O15211: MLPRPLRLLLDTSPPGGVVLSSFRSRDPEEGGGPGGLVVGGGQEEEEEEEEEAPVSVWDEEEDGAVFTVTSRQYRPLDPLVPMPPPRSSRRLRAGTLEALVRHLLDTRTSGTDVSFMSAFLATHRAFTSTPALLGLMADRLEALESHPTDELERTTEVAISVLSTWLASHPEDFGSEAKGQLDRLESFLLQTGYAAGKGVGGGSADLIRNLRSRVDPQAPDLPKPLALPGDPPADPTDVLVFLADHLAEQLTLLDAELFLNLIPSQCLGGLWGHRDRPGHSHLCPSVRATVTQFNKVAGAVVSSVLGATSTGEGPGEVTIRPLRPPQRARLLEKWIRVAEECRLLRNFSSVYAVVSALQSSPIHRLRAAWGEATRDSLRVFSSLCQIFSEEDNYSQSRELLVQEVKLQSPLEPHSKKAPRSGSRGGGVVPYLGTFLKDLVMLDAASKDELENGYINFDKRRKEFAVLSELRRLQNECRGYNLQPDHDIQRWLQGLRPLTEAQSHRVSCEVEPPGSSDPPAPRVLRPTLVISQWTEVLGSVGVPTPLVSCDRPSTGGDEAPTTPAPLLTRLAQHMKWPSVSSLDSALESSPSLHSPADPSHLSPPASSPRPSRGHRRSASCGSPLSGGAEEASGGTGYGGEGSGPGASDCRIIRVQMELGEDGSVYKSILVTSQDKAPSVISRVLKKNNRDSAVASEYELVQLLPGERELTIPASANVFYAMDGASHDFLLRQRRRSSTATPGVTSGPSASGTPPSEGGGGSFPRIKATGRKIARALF
UniProt Q9HCM1: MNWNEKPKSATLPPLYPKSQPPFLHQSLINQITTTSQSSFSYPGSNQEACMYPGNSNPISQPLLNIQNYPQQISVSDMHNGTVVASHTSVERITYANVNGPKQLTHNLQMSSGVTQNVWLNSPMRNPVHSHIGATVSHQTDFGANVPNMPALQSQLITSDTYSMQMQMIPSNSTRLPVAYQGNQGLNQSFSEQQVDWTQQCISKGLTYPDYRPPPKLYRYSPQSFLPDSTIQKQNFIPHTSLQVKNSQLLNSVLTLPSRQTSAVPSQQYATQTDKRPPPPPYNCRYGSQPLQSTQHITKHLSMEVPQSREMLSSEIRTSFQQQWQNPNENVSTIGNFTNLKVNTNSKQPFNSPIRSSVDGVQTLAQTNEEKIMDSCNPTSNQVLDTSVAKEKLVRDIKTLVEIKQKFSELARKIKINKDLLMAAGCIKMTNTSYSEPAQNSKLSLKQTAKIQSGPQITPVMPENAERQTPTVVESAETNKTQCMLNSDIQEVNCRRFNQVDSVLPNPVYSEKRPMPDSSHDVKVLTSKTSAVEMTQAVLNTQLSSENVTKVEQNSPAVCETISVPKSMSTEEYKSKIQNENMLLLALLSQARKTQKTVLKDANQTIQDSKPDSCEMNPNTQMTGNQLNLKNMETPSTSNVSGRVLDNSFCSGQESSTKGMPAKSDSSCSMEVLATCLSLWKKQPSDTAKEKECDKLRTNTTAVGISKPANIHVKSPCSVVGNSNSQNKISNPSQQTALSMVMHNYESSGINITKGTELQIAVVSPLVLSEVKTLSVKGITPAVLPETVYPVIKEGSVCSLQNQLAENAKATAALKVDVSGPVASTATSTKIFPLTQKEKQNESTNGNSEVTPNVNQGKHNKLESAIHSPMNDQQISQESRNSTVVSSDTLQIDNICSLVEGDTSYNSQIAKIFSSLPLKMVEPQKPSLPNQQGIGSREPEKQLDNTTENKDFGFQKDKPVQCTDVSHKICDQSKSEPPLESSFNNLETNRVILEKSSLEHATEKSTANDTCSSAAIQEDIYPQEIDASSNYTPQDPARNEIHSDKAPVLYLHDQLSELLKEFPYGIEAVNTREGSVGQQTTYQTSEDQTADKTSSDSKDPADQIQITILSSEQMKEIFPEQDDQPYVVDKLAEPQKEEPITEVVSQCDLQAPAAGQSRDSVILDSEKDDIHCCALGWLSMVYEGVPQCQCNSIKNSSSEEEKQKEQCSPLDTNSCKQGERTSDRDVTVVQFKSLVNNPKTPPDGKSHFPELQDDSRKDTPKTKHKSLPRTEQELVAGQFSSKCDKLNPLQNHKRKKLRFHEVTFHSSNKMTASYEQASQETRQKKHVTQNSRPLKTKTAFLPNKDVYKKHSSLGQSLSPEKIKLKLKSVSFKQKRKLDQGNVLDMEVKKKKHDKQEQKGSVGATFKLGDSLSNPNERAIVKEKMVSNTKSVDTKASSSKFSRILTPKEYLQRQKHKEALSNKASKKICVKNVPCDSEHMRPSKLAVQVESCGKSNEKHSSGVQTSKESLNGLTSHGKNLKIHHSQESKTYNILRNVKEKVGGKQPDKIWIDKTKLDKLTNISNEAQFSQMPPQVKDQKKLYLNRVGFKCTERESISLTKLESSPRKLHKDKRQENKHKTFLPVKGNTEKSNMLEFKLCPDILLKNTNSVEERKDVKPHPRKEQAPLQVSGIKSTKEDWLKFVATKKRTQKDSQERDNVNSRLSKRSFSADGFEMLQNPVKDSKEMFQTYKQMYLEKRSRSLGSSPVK
UniProt P49795: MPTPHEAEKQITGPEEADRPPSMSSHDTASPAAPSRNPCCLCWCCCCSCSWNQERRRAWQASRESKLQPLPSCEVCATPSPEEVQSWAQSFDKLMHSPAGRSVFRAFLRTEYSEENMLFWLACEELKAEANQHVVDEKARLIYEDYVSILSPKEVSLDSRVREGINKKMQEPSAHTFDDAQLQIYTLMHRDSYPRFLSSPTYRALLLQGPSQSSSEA
UniProt Q9UKL0, whole entry, looked up: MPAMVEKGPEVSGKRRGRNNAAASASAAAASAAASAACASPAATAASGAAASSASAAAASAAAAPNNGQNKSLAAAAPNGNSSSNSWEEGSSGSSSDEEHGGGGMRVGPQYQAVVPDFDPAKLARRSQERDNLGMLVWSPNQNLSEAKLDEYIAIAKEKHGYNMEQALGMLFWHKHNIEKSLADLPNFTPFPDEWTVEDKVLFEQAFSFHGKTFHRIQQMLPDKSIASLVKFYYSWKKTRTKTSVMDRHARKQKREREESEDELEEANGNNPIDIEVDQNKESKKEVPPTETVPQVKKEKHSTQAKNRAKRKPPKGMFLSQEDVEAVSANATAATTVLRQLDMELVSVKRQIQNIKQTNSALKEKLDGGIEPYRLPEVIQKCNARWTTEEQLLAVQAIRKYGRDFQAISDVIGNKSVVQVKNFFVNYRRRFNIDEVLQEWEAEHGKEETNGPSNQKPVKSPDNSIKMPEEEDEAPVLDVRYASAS
UniProt Q6NTF9: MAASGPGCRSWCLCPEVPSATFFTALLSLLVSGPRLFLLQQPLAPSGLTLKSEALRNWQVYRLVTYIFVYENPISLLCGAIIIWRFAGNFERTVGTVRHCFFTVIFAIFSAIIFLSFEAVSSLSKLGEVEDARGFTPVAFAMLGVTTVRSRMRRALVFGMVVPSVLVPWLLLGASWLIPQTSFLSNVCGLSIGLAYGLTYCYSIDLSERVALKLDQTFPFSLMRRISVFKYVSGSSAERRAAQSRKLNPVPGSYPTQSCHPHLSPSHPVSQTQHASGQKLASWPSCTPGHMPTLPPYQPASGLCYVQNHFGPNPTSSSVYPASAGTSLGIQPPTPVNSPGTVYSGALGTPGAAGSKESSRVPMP
UniProt Q96EN9: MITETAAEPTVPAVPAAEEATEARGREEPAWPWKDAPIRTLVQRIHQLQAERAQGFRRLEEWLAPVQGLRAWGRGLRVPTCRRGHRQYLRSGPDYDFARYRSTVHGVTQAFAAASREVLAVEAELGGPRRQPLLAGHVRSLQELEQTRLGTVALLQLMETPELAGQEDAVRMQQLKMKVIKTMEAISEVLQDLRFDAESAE
UniProt Q9BQ04: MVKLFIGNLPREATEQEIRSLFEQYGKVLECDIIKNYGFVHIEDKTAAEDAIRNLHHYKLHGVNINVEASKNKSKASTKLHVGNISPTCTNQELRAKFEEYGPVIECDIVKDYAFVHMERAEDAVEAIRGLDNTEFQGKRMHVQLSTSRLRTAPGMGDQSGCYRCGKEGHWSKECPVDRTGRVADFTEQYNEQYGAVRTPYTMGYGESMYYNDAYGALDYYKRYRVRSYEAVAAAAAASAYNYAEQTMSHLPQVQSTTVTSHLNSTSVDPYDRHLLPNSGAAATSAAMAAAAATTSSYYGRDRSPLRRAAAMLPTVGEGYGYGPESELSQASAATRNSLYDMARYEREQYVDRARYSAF
UniProt Q9HBD1: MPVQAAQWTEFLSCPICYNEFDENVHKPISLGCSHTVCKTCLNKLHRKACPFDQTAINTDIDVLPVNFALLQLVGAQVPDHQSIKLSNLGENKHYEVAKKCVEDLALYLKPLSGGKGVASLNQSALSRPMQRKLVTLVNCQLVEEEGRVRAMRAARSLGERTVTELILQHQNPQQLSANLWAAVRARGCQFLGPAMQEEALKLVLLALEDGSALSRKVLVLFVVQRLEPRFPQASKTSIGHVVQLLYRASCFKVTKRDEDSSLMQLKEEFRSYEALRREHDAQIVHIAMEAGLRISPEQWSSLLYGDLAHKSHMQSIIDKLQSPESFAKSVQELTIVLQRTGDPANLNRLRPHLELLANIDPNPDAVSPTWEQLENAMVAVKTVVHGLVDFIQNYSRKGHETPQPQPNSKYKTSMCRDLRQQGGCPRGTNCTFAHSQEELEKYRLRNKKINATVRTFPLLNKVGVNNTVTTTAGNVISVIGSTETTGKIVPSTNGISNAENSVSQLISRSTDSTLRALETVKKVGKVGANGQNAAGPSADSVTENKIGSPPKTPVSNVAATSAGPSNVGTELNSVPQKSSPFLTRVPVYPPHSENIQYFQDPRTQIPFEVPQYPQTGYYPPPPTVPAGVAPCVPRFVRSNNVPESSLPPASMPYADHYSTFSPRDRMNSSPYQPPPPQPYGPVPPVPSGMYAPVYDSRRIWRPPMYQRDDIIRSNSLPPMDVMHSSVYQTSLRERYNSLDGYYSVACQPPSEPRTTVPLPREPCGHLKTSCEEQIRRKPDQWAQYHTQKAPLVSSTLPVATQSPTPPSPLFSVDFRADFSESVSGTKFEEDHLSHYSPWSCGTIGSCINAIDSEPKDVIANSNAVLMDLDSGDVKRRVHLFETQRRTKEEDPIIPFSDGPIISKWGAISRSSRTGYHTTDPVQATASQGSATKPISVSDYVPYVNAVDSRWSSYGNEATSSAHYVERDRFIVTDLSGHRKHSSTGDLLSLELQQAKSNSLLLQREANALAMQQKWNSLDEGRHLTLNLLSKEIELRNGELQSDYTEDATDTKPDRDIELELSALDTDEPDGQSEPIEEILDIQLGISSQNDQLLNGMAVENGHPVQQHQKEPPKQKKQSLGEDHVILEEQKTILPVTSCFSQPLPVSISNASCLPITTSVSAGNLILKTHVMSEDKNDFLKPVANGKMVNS
UniProt P48380: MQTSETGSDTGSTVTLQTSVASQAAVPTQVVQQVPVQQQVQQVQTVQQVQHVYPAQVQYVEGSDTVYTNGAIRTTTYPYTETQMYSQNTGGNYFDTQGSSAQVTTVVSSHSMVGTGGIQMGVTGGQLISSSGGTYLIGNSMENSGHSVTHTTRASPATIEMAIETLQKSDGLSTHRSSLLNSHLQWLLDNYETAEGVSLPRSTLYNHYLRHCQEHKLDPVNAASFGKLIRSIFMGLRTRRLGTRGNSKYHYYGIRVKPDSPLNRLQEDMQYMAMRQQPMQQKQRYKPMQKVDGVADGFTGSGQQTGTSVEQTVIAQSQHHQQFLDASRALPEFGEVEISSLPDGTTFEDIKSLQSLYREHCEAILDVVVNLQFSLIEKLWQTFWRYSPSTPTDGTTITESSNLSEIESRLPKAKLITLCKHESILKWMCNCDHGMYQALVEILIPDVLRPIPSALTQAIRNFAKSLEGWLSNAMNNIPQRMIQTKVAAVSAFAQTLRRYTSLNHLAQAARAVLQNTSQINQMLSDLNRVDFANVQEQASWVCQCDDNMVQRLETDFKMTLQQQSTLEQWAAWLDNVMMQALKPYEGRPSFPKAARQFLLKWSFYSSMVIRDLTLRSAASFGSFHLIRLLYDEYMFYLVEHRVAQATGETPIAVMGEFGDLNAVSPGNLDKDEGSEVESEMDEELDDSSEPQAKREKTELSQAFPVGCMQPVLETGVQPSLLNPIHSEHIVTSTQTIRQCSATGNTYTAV
UniProt Q02833: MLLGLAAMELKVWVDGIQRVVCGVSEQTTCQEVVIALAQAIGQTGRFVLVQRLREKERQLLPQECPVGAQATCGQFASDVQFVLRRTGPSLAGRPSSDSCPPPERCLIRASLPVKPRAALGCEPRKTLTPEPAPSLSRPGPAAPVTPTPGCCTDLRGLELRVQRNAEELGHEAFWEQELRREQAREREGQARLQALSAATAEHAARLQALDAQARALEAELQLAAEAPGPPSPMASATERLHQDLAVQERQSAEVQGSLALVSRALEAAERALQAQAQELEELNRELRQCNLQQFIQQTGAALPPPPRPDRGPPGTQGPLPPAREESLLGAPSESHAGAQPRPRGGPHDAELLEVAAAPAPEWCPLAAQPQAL

vorinostat = compound: O=C(CCCCCCC(=O)Nc1ccccc1)NO [vorinostat]
Summary of the method: as §1

silmitasertib = compound: O=C(O)c1ccc2c(c1)nc(Nc1cccc(Cl)c1)c1ccncc12 [silmitasertib]
Summary of the method: as §1

[2] = compound: O=C1NC(=O)C(c2cnc3ccccn23)=C1c1cn2c3c(cc(F)cc13)CN(C(=O)N1CCCCC1)CC2
Summary of the method: as §1

entospletinib = compound: c1cn2cc(-c3ccc4cn[nH]c4c3)nc(Nc3ccc(N4CCOCC4)cc3)c2n1 [entospletinib]
Summary of the method: as §1

**Q.** Which results are given for RFX1 (UniProt P22670)?
**A.** log2 fold change [1]: inactive: 0.01; log2 fold change (vorinostat): inactive: 0.037; log2 fold change (silmitasertib): inactive: -0.014; log2 fold change [2]: inactive: 0.013; log2 fold change (entospletinib): inactive: 0.029

**Q.** Which log2 fold change (vorinostat) does the source give for RGL2 (UniProt O15211) here?
**A.** inactive: -0.121

**Q.** What about the log2 fold change (silmitasertib) of the same target?
**A.** inactive: 0.129

**Q.** What about the log2 fold change [2] of the same target?
**A.** inactive: -0.035

**Q.** With RBMXL1 (UniProt Q96E39) as the target, how does the log2 fold change [1] read?
**A.** inactive: -0.012

**Q.** What about the log2 fold change [2] of the same target?
**A.** inactive: 0.014

**Q.** And the log2 fold change (entospletinib)?
**A.** inactive: 0.101

**Q.** What does the source list for RBMY1E (UniProt A6NEQ0)?
**A.** log2 fold change [1]: inactive: 0.073; log2 fold change [2]: inactive: -0.02; log2 fold change (entospletinib): inactive: 0.075

**Q.** With RESF1 (UniProt Q9HCM1) as the target, how does the log2 fold change [2] read?
**A.** inactive: -0.045

**Q.** And the log2 fold change (entospletinib)?
**A.** inactive: -0.074

**Q.** Which results are given for RETSAT (UniProt Q6NUM9)?
**A.** log2 fold change [1]: inactive: -0.087; log2 fold change (vorinostat): inactive: 0.17; log2 fold change (silmitasertib): inactive: -0.016; log2 fold change [2]: inactive: 0.058; log2 fold change (entospletinib): inactive: 0.036

**Q.** With RGS19 (UniProt P49795) as the target, how does the log2 fold change [2] read?
**A.** inactive: 0.112

**Q.** How did the log2 fold change [2] turn out when RBP4 (UniProt P02753) was run?
**A.** inactive: -0.047

**Q.** Which log2 fold change [1] does the source give for RCOR1 (UniProt Q9UKL0) here?
**A.** inactive: 0.034

**Q.** What about the log2 fold change (vorinostat) of the same target?
**A.** inactive: -0.184

**Q.** What about the log2 fold change (silmitasertib) of the same target?
**A.** inactive: -0.014

**Q.** What about the log2 fold change [2] of the same target?
**A.** inactive: -0.011

**Q.** And the log2 fold change (entospletinib)?
**A.** inactive: 0.009

**Q.** With RHBDD2 isoform 2 (UniProt Q6NTF9) as the target, how does the log2 fold change (vorinostat) read?
**A.** inactive: 0.204

**Q.** What about the log2 fold change (silmitasertib) of the same target?
**A.** inactive: -0.36

**Q.** How did the log2 fold change (vorinostat) turn out when REX1BD (UniProt Q96EN9) was run?
**A.** inactive: -0.139

**Q.** And the log2 fold change (silmitasertib)?
**A.** inactive: 0.028

**Q.** And the log2 fold change [2]?
**A.** inactive: 0.024

**Q.** What about the log2 fold change (entospletinib) of the same target?
**A.** inactive: -0.265

**Q.** With RBM4B (UniProt Q9BQ04) as the target, how does the log2 fold change [2] read?
**A.** inactive: -0.033

**Q.** What does the source list for RC3H2 (UniProt Q9HBD1)?
**A.** log2 fold change [1]: inactive: -0.109; log2 fold change [2]: inactive: 0.03; log2 fold change (entospletinib): inactive: -0.264

**Q.** How did the log2 fold change (entospletinib) turn out when RFX3 (UniProt P48380) was run?
**A.** inactive: 0.012

**Q.** Which log2 fold change [1] does the source give for RBBP8 isoform 2 (UniProt Q99708) here?
**A.** inactive: -0.035

**Q.** What about the log2 fold change (vorinostat) of the same target?
**A.** inactive: 0.076

**Q.** And the log2 fold change (silmitasertib)?
**A.** inactive: -0.13

**Q.** What about the log2 fold change [2] of the same target?
**A.** inactive: -0.028

**Q.** And the log2 fold change (entospletinib)?
**A.** inactive: -0.002

**Q.** For RASSF7 (UniProt Q02833), which log2 fold change [2] is on record?
**A.** inactive: -0.095

**Q.** RBFOX2 isoform 8 (UniProt O43251) was tested. Which log2 fold change (vorinostat) did it give?
**A.** inactive: -0.12

**Q.** And the log2 fold change (silmitasertib)?
**A.** inactive: 0.116

**Q.** What about the log2 fold change [2] of the same target?
**A.** inactive: 0.168

**Q.** What about the log2 fold change (entospletinib) of the same target?
**A.** inactive: -0.207

**Q.** How did the log2 fold change [2] turn out when RBM45 (UniProt Q8IUH3) was run?
**A.** inactive: 0.093

Source: the supplement of paper PMC10849652
